One assay addresses T1, Flag-ICAM2 (UniProt P13598).
T1 sequence: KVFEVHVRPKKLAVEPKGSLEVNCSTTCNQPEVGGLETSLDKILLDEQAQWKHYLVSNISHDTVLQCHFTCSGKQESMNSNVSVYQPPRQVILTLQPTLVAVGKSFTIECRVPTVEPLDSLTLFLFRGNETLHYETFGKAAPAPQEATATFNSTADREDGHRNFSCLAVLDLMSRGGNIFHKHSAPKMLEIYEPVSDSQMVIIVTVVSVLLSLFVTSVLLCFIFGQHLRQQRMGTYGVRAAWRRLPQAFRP
In words: co-IP; Flag-ICAM2 and HA-RDX plasmids co-transfected into 293 T cells; lysate, immunoprecipitation, Western blotting. On the technique in general: A western blot detects proteins with antibodies after separation by electrophoresis.

Chains of the proteins cited; added tags and fusions are not shown.
UniProt P35241: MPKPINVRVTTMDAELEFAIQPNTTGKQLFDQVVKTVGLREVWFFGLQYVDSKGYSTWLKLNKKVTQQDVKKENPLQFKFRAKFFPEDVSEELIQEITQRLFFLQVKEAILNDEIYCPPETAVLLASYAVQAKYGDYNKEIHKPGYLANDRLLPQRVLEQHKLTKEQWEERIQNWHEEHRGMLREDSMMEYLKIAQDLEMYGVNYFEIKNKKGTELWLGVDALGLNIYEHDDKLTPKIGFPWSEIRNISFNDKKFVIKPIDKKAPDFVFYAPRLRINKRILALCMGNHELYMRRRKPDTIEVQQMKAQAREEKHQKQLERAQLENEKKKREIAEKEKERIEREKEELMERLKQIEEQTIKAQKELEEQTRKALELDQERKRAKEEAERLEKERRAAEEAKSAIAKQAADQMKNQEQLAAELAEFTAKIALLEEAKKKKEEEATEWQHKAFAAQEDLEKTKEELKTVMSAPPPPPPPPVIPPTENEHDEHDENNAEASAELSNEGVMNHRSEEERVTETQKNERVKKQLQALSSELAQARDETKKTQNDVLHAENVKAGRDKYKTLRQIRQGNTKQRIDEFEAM

In assay [1] the target is T2, intercellular adhesion molecule 2 (ICAM2), endogenous (human (endogenous in SGC7901 and MGC803)) (UniProt P13598).
T2 sequence: T1 sequence
Put plainly: co-IP; endogenous proteins in lysates of SGC7901 and MGC803 cells (Pierce IP Lysis Buffer); ICAM2 antibody or RDX antibody or normal immunoglobulin G, protein A/G agarose beads, overnight at 4 °C; Western blotting.

The target of assay [2] is radixin (RDX), endogenous (human (endogenous in SGC7901 and MGC803)) (UniProt P35241). The assay is described as above.

For 3 molecules, binding results are on record in PMC10536727.

No constants are given. Whether binding was seen depends on the method and setting. In cells and extracts the contact can be indirect. Some results given as binding are weak or reduced against the parent protein; the word gives no strength. For part of these data: Where a sequence is shown, tags or fusion partners need not be part of it.

Consider HA-RDX (from UniProt P35241 1-583), for which the binding entry with Flag-ICAM2 is listed as “binds”.

Consider “radixin (RDX), endogenous (from UniProt P35241 1-583)”, for which the binding entry in assay [1] is “binds”.

B1: intercellular adhesion molecule 2 (ICAM2), endogenous (protein, UniProt P13598 25-275)
chain: T1 sequence
For B1, the binding result in assay [2] is “binds”.
